“And” between values parts separate entries of the source, which are not always exact repeats. Equal values may be shown once. Among all 390,000 compounds or so, about 4,000 (1%) were called active. The inconclusive results got no clear call from the source; some entries with a clear call stand among them for comparison. Calls follow the shape of the dose curve; as a rule, active = well fitted inhibition curve with a large enough effect; inconclusive = small, poorly fitted or top-dose-only effect, or another doubt; inactive = no such curve, though single readings can be large or run the other way. Potencies of inconclusive entries are doubtful fits and often do not repeat.
These molecules were tested against DNA polymerase iota (Homo sapiens) (UniProt Q9UNA4) (assay: qHTS for Inhibitors of Polymerase Iota). Details: Pol iota fluorescent replication assay, 10 min; series mostly up to 115 µM.
In short: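 Fluorescent replication assay read twice, at 0 min and 10 min after adding 50 nM (final) substrate. Enzyme (10 nM) and compounds were first incubated 15 min at room temperature; enzyme-free buffer wells were negative controls.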
Potency is read from the fitted curve at half-maximal effect.

Protein sequences, listed by entry. Tags and fused reporters are not part of them. Lines headed by an entry give the natural chain unless they say otherwise; changes in a name come on top.
UniProt Q9UNA4: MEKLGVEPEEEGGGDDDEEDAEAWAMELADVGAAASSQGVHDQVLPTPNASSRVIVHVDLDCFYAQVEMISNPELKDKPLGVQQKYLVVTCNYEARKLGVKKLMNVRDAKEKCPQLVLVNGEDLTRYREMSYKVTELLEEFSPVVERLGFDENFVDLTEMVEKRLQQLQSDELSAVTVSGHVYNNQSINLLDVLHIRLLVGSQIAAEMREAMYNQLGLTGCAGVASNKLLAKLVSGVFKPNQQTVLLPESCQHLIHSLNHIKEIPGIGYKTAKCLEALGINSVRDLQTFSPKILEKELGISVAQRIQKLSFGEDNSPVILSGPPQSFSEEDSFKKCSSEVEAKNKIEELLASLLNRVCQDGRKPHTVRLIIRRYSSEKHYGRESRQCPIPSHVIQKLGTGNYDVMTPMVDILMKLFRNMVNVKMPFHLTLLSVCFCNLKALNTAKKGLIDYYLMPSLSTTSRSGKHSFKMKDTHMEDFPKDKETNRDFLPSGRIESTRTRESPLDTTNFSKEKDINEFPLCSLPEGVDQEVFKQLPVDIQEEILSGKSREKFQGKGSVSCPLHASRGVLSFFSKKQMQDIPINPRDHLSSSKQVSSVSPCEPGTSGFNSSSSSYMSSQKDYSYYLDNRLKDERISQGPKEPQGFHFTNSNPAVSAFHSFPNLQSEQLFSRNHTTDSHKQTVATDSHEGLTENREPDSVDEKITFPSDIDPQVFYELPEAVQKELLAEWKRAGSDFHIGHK

| SMILES | Potency |
| --- | --- |
| COc1ccc(C(=O)N/N=C\c2ccoc2)cc1 | inconclusive: 79.4 µM [inhibitor, partial curve] |
| COc1ccc(-c2csc(N3CCN(c4cc5c(cc4Cl)nc(-c4ccncc4)n5CCOCCO)CC3)n2)cc1 | inconclusive: 22.4 µM [inhibitor, single point] |
| CCCNC(=O)Cn1nc(-c2ccc(C)c(C)c2)c2cnc3ccc(OC)cc3c21 | inconclusive: 2.82 µM [inhibitor, full curve, poor fit] |
| Cc1ccc(CNC(=O)c2cc3c(=O)oc4ccc(C)cc4c3s2)cc1 | inactive |
| Cc1cccc(OCC(=O)Nc2ccc(S(=O)(=O)Nc3onc(C)c3C)cc2)c1C | inconclusive: 35.5 µM [inhibitor, partial curve, poor fit] |
| COc1cc(-n2nc(C)c3c2OC(N)=C(C#N)C3c2ccccc2)c(Cl)c(Br)c1O (centres undefined) | inconclusive: 1.58 µM [inhibitor, full curve, poor fit] |
| COC/C=C/C1=CC2=CC(=O)C(C)(OC(=O)c3cnc4ccccc4n3)C(=O)C2=CN1C1CC1 (centres undefined) | inconclusive: 25.1 µM [inhibitor, partial curve, poor fit] |
| CCOC(=O)c1ccc(OC(=O)c2cn(-c3ccc(C)cc3)c(=O)c3ccccc23)cc1 | inactive |
| COc1cc(/C=C2\SC(=Nc3ccc(O)cc3)NC2=O)cc(OC)c1O | inconclusive: 63.1 µM [inhibitor, partial curve, poor fit] |
| Cc1ccc2oc(=S)n(C)c2c1 | inactive |
| OCC(O)C(O)C(O)C(O)C=Nc1ccc(/C=C/c2ccnc3ccccc23)cc1 (centres undefined) | inconclusive: 89.1 µM [inhibitor, partial curve, poor fit] |
| O=C(c1cccc(NS(=O)(=O)c2ccccc2)c1)N1CCCCC1 | inactive |
| CCc1ccc(/C=N/NC(=S)NCCc2ccccc2)cc1 | inactive |
| CCC(NC(C)C)C(O)c1ccc(O)c(O)c1 (centres undefined) | inactive and inconclusive: 44.7 µM [inhibitor, partial curve] |
| O=C1CN(C(=O)COC(=O)c2ccc([N+](=O)[O-])o2)c2ccccc2N1 | inconclusive: 20 µM [inhibitor, full curve, poor fit] |
| C=CCn1c(=O)[nH]c2cc(C(=O)N3CC=C(c4ccccc4)CC3)ccc2c1=O | inconclusive: 70.8 µM [inhibitor, partial curve, poor fit] |
| COc1cccc(-c2nc(SCc3cccc(Br)c3)n3[nH]c(=O)cc3n2)c1 | inconclusive: 44.7 µM [inhibitor, partial curve, poor fit] |
| O=C(COC(=O)CCCc1nc2ccccc2s1)NC(=O)NCc1ccco1 | inconclusive: 63.1 µM [inhibitor, partial curve, poor fit] |
| COc1ccccc1-c1nnc(C2CCN(S(=O)(=O)c3ccc(CC(C)C)cc3)CC2)o1 | inactive |
| CCc1nc(Nc2ccc(OC)cc2OC)c2oc3ccccc3c2n1 | inconclusive: 11.2 µM [inhibitor, full curve, poor fit] |
| COc1cc2c(cc1OC)C(c1ccc(Cl)cc1)N(c1cccc(C#N)c1)C(=O)C2 (centres undefined) | inactive |
| Cc1c(C=O)ccc(N(C)C)c1C | inactive |

As a working copy, five of the compounds above.

| SMILES | Potency |
| --- | --- |
| COc1ccc(C(=O)N/N=C\c2ccoc2)cc1 | inconclusive: 79.4 µM [inhibitor, partial curve] |
| COc1ccc(-c2csc(N3CCN(c4cc5c(cc4Cl)nc(-c4ccncc4)n5CCOCCO)CC3)n2)cc1 | inconclusive: 22.4 µM [inhibitor, single point] |
| CCCNC(=O)Cn1nc(-c2ccc(C)c(C)c2)c2cnc3ccc(OC)cc3c21 | inconclusive: 2.82 µM [inhibitor, full curve, poor fit] |
| Cc1ccc(CNC(=O)c2cc3c(=O)oc4ccc(C)cc4c3s2)cc1 | inactive |
| Cc1cccc(OCC(=O)Nc2ccc(S(=O)(=O)Nc3onc(C)c3C)cc2)c1C | inconclusive: 35.5 µM [inhibitor, partial curve, poor fit] |

Next structures follow.

| SMILES | Potency |
| --- | --- |
| CC(=O)c1ccc(NC(=O)C2(S(=O)(=O)c3ccccc3)CC2)cc1 | inconclusive: 31.6 µM [inhibitor, full curve] |
| Cn1cc(C(=O)O)c(=O)c2cc(S(=O)(=O)N3CCOCC3)ccc21 | inconclusive: 100 µM [inhibitor, partial curve, poor fit] |
| CS(=O)(=O)N(CC(=O)Nc1c(F)cccc1F)c1ccc(C23CC4CC(CC(C4)C2)C3)cc1 | inconclusive: 25.1 µM [inhibitor, full curve, poor fit] |
| NC(=O)C1(N2CCCCC2)CCN(CC(=O)Nc2ccccc2Sc2ccccc2)CC1 | inconclusive: 89.1 µM [inhibitor, single point] |
| COc1ccc(S(=O)(=O)N(CCC#N)Cc2ccco2)cc1OC | inconclusive: 35.5 µM [inhibitor, single point] |
| O=c1cc(-c2ccc(O)c(O)c2)oc2ccc3ccccc3c12 | inconclusive: 14.1 µM [inhibitor, partial curve, poor fit] |
| COc1ccc(N=C2SC(C(N)=O)CC(=O)N2Cc2ccc3c(c2)OCO3)cc1 (centres undefined) | active: 39.8 µM |
| CC(NC(=O)c1noc2c1CCCCC2)c1ccccc1 (centres undefined) | inconclusive: 79.4 µM [inhibitor, partial curve] |
| Oc1ccc(C[C@@H]2CNCCN2CCc2cc(C(F)(F)F)cc(C(F)(F)F)c2)cc1 | inconclusive: 0.794 µM [inhibitor, partial curve, poor fit] |
| O=C(Nc1ccc(-c2nc3ncccc3o2)cc1)c1ccc(Br)o1 | inactive |
| CCn1c(N)c(C(=O)NCC2CCCO2)sc1=S (centres undefined) | inconclusive: 14.1 µM [inhibitor, partial curve, poor fit] |
| CC(C)C1Nc2ccc(C(=O)O)cc2C2C=CCC21 (centres undefined) | inconclusive: 12.6 µM [inhibitor, partial curve, poor fit] |
| O=C1NNC(c2ccccc2)=N/C1=C\c1ccccc1 | inconclusive: 11.2 µM [inhibitor, partial curve, poor fit] |
| O=C(N/N=C/C=C/c1ccccc1)NC1CCCCC1 | inactive |
| COc1ccc(N2CCN(C(=O)Cc3ccc(S(=O)(=O)N4CCOCC4)s3)CC2)cc1 | active: 20 µM |
| COc1ccc(NC(=O)Cn2nnc(-c3nc(-c4ccncc4)no3)c2N)cc1OC | inactive |
| Clc1cccc(-c2sc(Nc3ccccc3)n[n+]2-c2ccccc2)c1Cl | inconclusive: 39.8 µM [inhibitor, partial curve, poor fit] |
| Cc1ccccc1NC(=O)CN1C(=O)S/C(=C\c2ccc(-c3cccc(C(=O)O)c3C)o2)C1=O | inconclusive: 44.7 µM [inhibitor, partial curve, poor fit] |
| Cc1cc(NC(=O)c2c(F)cccc2F)n(-c2nc3ccccc3[nH]2)n1 | inconclusive: 112 µM [inhibitor, single point] |
| COc1ccccc1CCNC(=O)C(=O)NCC(c1cccnc1)N1CCN(c2ccccc2)CC1 (centres undefined) | inactive |
| COCCn1c(C)cc(O)c(C(c2ccccc2F)N2CCN(c3ccccc3)CC2)c1=O (centres undefined) | inconclusive: 89.1 µM [inhibitor, single point] |
| c1ccc(C(c2nnnn2Cc2cccs2)N2CCN(C3CCCC3)CC2)cc1 (centres undefined) | inconclusive: 3.16 µM [inhibitor, full curve, poor fit] |

| SMILES | Potency |
| --- | --- |
| CCOc1ccc(C(=O)NC2C(=O)N3C(C(=O)O)=C(COC(C)=O)CSC23)cc1OCC (centres undefined) | active: 25.1 µM |
| C=CCSc1nnc(NC(=O)c2c(CC)noc2C)s1 | inconclusive: 89.1 µM [inhibitor, partial curve, poor fit] |
| Cc1noc(C)c1NC(=O)N(C)C[C@H]1Oc2c(NC(=O)Nc3ccccc3)cccc2C(=O)N([C@H](C)CO)C[C@@H]1C | inconclusive: 56.2 µM [inhibitor, partial curve, poor fit] |
| O=C(NC(=S)Nc1cccc(C(F)(F)F)c1)c1csnn1 | inconclusive: 10 µM [inhibitor, partial curve] |
| COc1cc(/C=C2/C(=O)N(c3cccc(Br)c3)N=C2C)cc(OC)c1O | inconclusive: 1.26 µM [inhibitor, full curve, poor fit] |
| O=C(c1cccc(Br)c1)N1CCN(S(=O)(=O)N2CCCCC2)CC1 | inconclusive: 79.4 µM [inhibitor, single point] |
| O=C(NCc1ccco1)c1ccccc1F | inconclusive: 14.1 µM [inhibitor, full curve, poor fit] |
| CCOc1ccc(OCc2ccc(C(=O)NN)o2)cc1 | inconclusive: 1.78 µM [inhibitor, partial curve, poor fit] |
| COc1cccc(C(=O)COC(=O)c2cc(-c3cccs3)nc3ccccc23)c1 | inconclusive: 89.1 µM [inhibitor, single point] |
| O=C(N/N=C/c1ccc([N+](=O)[O-])o1)c1cc2ccccc2o1 | inconclusive: 79.4 µM [inhibitor, single point] |
| O=C(c1cccc(Br)c1)N1CCN(C(=O)N2CCOCC2)CC1 | inconclusive: 44.7 µM [inhibitor, partial curve, poor fit] |
| CC(C)c1ccc(NC(=O)COC(=O)CC2CCCC2)cc1 | inactive |
| Cc1ccc(N2C(=O)N3[C@H](c4ccc(Cl)cc4)[C@@H]4C(=O)N(C5CCCCC5)C(=O)[C@@H]4[C@]3(Cc3ccccc3)C2=O)cc1 | inactive |
| O=C1CSC(=S)N1c1ccc(F)c(Cl)c1 | inconclusive: 31.6 µM [inhibitor, partial curve] |
| Cc1ccc(C(=O)Nc2c(C)cc(-c3ccc(Cl)cc3)oc2=O)cc1 | inconclusive: 100 µM [inhibitor, partial curve, poor fit] |
| O=c1[nH]nc(-c2n[nH]c(=O)o2)o1 | inactive |
| CC(C)(C)C1=CC(=Nc2ccccc2N)C=C(C(C)(C)C)C1=O | inactive |
| O=C(NC1CC1)C1=C[C@H](c2c[nH]c3ccccc23)C[C@H](OCCCCO)O1 | inactive |
| Cc1[nH]c2ccccc2c1C(=O)CSc1nc2ccccc2c(=O)n1CCCN1CCOCC1 | inconclusive: 20 µM [inhibitor, partial curve, poor fit] |
| COc1ccc(C(=O)COC(=O)c2nc3nccc(C)n3n2)cc1F | inconclusive: 89.1 µM [inhibitor, single point] |

Reference: PubChem BioAssay AID588590 (National Center for Advancing Translational Sciences (NCATS), 2011)
